The values that follow come from patent publication US4743616A, “Novel biologically active compound having anti-prolyl endopeptidase activity” (Suntory Limited, priority 1984, dated 1988).

Data set [1] has as its system experimental amnesia caused in rats by scopolamine. Put plainly: Preventive effect against experimental amnesia caused in rats by scopolamine (intraperitoneal administration). Format: in vivo, Wister male rats. As to conditions: 1 h before learning, scopolamine 3 mg/kg i.p. after learning. How it is done: (§1) Several of the anti-prolyl endopeptidase compounds of the present invention were checked for their ability to prevent the inhibition of long-term memory fixation by scopolamine. Solutions of physiological saline that contained selected compounds of the present inventions in varying amounts (20 mg, 2 mg, 0.2 mg and 0.02 mg/kg) were administered intraperitoneally once a day to Wister male rats (100-120 g). One hour after the administration, electric shocks were applied to the rats so that they would acquire passive avoidance learning. Immediately thereafter, scopolamine was administered intraperitoneally to each rat in an amount of 3 mg per kg of body weight.
(§2) The result of the test was assessed both 24 hours and 48 hours after the administration of scopolamine. The number of amnesic rats and that of sound rats were counted for each of the control group (rats which were not administered the test compounds but administered intraperitoneally only scopolamine and physiological saline) and the treated group (rats which were administered both the test compound and scopolamine).

Data set [2] has the same test system. Put plainly: Preventive effect against experimental amnesia caused in rats by scopolamine (oral administration). Format: in vivo. As to conditions: scopolamine 3 mg/kg i.p. after learning. The method, then:
as §1, §2
Varying amounts (1, 5, 25 and 100 mg/kg) of the compound were administered orally to each of the rats and tested for its anti-amnesic effects by the same procedures as used in Example 9.

`COC(=O)[C@@H]1CCCN1C(=O)CCc1ccccc1` [Compound No. 4, N-(3-phenylpropionyl)-proline methyl ester]: in data set [1] (2 mg/kg i.p.), the “Learning: Initial avoidane time” value stood at 2.8 s, the “Learning: No. of avoidances during learning” value was 2.1 and the “Learning: learning time” value stood at 39.8 s. In data set [1] (20 mg/kg i.p.), the “Learning: Initial avoidane time” value worked out at 2.9 s, the “Learning: No. of avoidances during learning” value is recorded as 1.6 and the “Learning: learning time” value worked out at 40.5 s.
As to `COC(=O)[C@@H]1CCCN1C(=O)Cc1ccccc1` [Compound No. 2, N-phenylacetyl-proline methyl ester], in data set [1] (20 mg/kg i.p.), the “Learning: Initial avoidane time” value worked out at 4.2 s, the “Learning: No. of avoidances during learning” value was 2.1 and the “Learning: learning time” value turned out to be 37.2 s.
Consider `COC(=O)C1CCCN1C(=O)CCCc1ccccc1` (stereo not drawn) [Compound No. 6, N-(4-phenyl-n-butyryl)-proline methyl ester], for which, in data set [1] (0.2 mg/kg i.p.), the “Learning: Initial avoidane time” value amounted to 2.7 s, the “Learning: No. of avoidances during learning” value was 1.4 and the “Learning: learning time” value was found to be 43.5 s. For the same compound, in data set [1] (2 mg/kg i.p.), the “Learning: Initial avoidane time” value was 3.2 s, the “Learning: No. of avoidances during learning” value was 1.7 and the “Learning: learning time” value came out at 42.9 s.
As to `O=CC1CCCN1C(=O)CCCc1ccccc1` (stereo not drawn) [Compound No. 5], the “Learning: Initial avoidane time” value in data set [2] (1 mg/kg p.o.) was 2.3 s; in data set [2] (5 mg/kg p.o.) it was 2.8 s; in data set [2] (25 mg/kg p.o.), 2.1 s; in data set [2] (100 mg/kg p.o.), 2.4 s; in data set [1] (0.02 mg/kg i.p.), 2.4 s; in data set [1] (0.2 mg/kg i.p.), 2.1 s. Further, the “Learning: Initial avoidane time” value in data set [1] (2 mg/kg i.p.) was determined as 2.4 s. Further, the “Learning: No. of avoidances during learning” value in data set [2] (1 mg/kg p.o.) is 1.9; in data set [2] (5 mg/kg p.o.), 1.9; in data set [2] (25 mg/kg p.o.), 1.3; in data set [2] (100 mg/kg p.o.), 1.5; in data set [1] (0.02 mg/kg i.p.), 1.9; in data set [1] (0.2 mg/kg i.p.), 1.8. Besides, the “Learning: No. of avoidances during learning” value in data set [1] (2 mg/kg i.p.) came out at 2.0. The “Learning: learning time” value amounted to 45.3 s in data set [2] (1 mg/kg p.o.); 47.7 s in data set [2] (5 mg/kg p.o.); 39.1 s in data set [2] (25 mg/kg p.o.); 43.3 s in data set [2] (100 mg/kg p.o.); 44.3 s in data set [1] (0.02 mg/kg i.p.); 42.9 s in data set [1] (0.2 mg/kg i.p.). Also, the “Learning: learning time” value in data set [1] (2 mg/kg i.p.) stood at 37.4 s.
With `O=CC1CCCN1C(=O)CCc1ccccc1` (stereo not drawn) [Compound No. 3, N-(3-phenylpropionyl)-prolinal], in data set [1] (0.02 mg/kg i.p.), the “Learning: Initial avoidane time” value was found to be 2.4 s, the “Learning: No. of avoidances during learning” value is given as 1.6 and the “Learning: learning time” value is 41.0 s. Also, in data set [1] (0.2 mg/kg i.p.), the “Learning: Initial avoidane time” value worked out at 2.2 s, the “Learning: No. of avoidances during learning” value came to 1.4 and the “Learning: learning time” value came out at 34.0 s. For the same compound, in data set [1] (2 mg/kg i.p.), the “Learning: Initial avoidane time” value was determined as 3.1 s, the “Learning: No. of avoidances during learning” value is 2.3 and the “Learning: learning time” value was 43.2 s.
As to `O=CC1CCCN1C(=O)Cc1ccccc1` (stereo not drawn) [Compound No. 1], in data set [1] (0.2 mg/kg i.p.), the “Learning: Initial avoidane time” value was 2.4 s, the “Learning: No. of avoidances during learning” value came to 1.8 and the “Learning: learning time” value turned out to be 48.3 s. For the same compound, in data set [1] (2 mg/kg i.p.), the “Learning: Initial avoidane time” value amounted to 3.5 s, the “Learning: No. of avoidances during learning” value is given as 1.8 and the “Learning: learning time” value was found to be 45.2 s.
